The nature of this data set: Solubility testing.

The source holds more than one record for some entries. The list is limited to them. The source may hold further records. Values that stand side by side differ for a reason that is not stated; they may come from other doses, times, organisms or constructs than stated.

Consider `Cc1ncsc1-c1ccc(CNC(=O)[C@@H]2C[C@@H](O)CN2C(=O)[C@@H](NC(=O)C2(F)CC2)C(C)(C)C)c(OCCOCCOCCN2CCC(c3ccc4c(c3)n(C3CCCC3)c3nc(=O)c5c(Br)cccc5n43)CC2)c1` [compound 21], for which the “Solubility pH 6.8” value is reported as 86.000 ug/mL, 85.000 ug/mL, 70.000 ug/mL, 80 μg/mL.
In the case of `Cc1ncsc1-c1ccc(CNC(=O)[C@@H]2C[C@@H](O)CN2C(=O)[C@@H](NC(=O)C2(F)CC2)C(C)(C)C)c(OCCOCCOCCOCCN2CCC(c3ccc4c(c3)n(C3CCCC3)c3nc(=O)c5c(Br)cccc5n43)CC2)c1` [compound 22], the “Solubility pH 4.5” value is reported as 230.000 ug/mL, 220.000 ug/mL, 225 μg/mL and the “Solubility pH 6.8” value was 180.000 ug/mL, 140.000 ug/mL, 160 μg/mL.
As for `Cc1ncsc1-c1ccc([C@H](COC(C)(C)CN2CCC(c3ccc4c(c3)n(C3CCCC3)c3nc(=O)c5c(Br)cccc5n43)CC2)NC(=O)[C@@H]2C[C@@H](O)CN2C(=O)[C@@H](NC(=O)C2(F)CC2)C(C)(C)C)cc1` [compound 28], the “Solubility pH 4.5” value is reported as 2.000 ug/mL, < 1.000 ug/mL, 3.000 ug/mL.

(Values after paper PMC9551036, “A selective and orally bioavailable VHL-recruiting PROTAC achieves SMARCA2 degradation in vivo” (Nature Communications, 2022).)
